US20170283509A1
No constants are given. Whether binding was seen depends on the method and setting. For part of these data: In cells and extracts the contact can be indirect. Some results given as binding are weak or reduced against the parent protein; the word gives no strength.

Protein sequences, listed by entry. Tags and fused reporters are not part of them. Lines headed by an entry give the natural chain unless they say otherwise; changes in a name come on top.
UniProt O95994: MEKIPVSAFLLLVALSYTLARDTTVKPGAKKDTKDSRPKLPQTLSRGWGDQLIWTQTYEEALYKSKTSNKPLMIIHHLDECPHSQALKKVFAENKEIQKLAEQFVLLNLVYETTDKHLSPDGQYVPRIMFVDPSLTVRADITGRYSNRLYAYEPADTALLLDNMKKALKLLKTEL

Columns and labels:
[1] = biological target: T1, Recombinant C4.4A (5428-C4-050, R&D Systems) (Homo sapiens (Human)) (UniProt O95274); assay: IP of combined recombinant proteins with anti-AGR2 antibody, western blot for C4.4A (FIG. 8D)
T1 sequence: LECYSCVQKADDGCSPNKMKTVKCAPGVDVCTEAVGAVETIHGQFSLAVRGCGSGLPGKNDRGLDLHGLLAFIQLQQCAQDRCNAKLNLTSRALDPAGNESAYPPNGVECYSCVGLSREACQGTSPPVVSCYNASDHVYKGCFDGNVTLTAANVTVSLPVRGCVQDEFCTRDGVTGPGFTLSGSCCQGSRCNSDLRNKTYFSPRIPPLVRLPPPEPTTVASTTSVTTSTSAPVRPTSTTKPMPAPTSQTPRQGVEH

[2] = biological target: T1, Recombinant C4.4A (5428-C4-050, R&D Systems) (Homo sapiens (Human)); assay: co-immunoprecipitation of purified recombinant proteins (2 ug each) with anti-AGR2 antibody, western blot for C4.4A
[3] = biological target: T1, Recombinant C4.4A (5428-C4-050, R&D Systems) (Homo sapiens (Human)); assay: co-immunoprecipitation of purified recombinant proteins (FIG. 2B)

Measured: binding

human recombinant AGR2 (rAGR2) (ab64013, AbCam) (from UniProt O95994 21-175) (ligand)
binds: all assays above
